Measurements from patent US20140030274A1.
Results are given in words; binding and its absence hold for the method and conditions named. Some results given as binding are weak or reduced against the parent protein; the word gives no strength.

Key:
Aβ(M1-42) (human) = assay: gel filtration on Superdex75 and SDS PAGE of fractions, 0 and 2 h incubation
Aβ(M1-40) (human) = assay: gel filtration on Superdex75 and SDS PAGE of fractions, 8 µM Aβ40 and 0.8 µM Bri2 BRICHOS after 20 h at 37 °C

binding (Aβ(M1-42) (human)): binds | binding (Aβ(M1-40) (human)): binds
Substance: Bri2 BRICHOS (recombinant human Bri2 BRICHOS construct as described in Peng et al. 2010) (from UniProt Q9Y287 90-236)
